This passage reports binding results from article PMC7181393.

The chains behind the UniProt entries cited, without tags or fusion partners. Residues count along the entry.
UniProt P29459, residues 23-219: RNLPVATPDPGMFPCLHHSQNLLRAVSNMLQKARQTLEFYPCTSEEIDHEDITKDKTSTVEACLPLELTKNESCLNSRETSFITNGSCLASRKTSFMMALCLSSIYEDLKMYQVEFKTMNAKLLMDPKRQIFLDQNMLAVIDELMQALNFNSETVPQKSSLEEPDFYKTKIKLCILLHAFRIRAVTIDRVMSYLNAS

Results are given in words; binding and its absence hold for the method and conditions named. Binding seen in cells or lysates may run through a third protein. Some binding calls cover weakened binding; strength is not graded here.

Assay [1] concerns the target IL-12A (human (endogenous in tonsillar CD4+ T cells)) (UniProt P29459). As to the kind of experiment: co-IP; lysate of isolated human tonsillar CD4+ T cells (1 x 10^7 cells in RIPA buffer without SDS), with or without SAg-Sau stimulation for 48 h, brefeldin A for the last 4 h; immunoprecipitated with anti-human IL-12A mAb (clone 27537) on sheep anti-mouse IgG Dynabeads, 4 °C; blotted with anti-human EBI3 (clone A15058A).

In assay [2] the target is human IL-12A expressed in CHO cells (human) (UniProt P29459). As to the kind of experiment: co-IP; secreted protein of CHO cell clones (C7, C8, C14, C15) co-transfected with human IL-12A and EBI3 plasmids; co-immunoprecipitation and Western blotting. (Immunoblotting shows a protein as a band on a membrane.)

B1: EBI3 (protein, UniProt Q14213 21-229)
chain: RKGPPAALTLPRVQCRASRYPIAVDCSWTLPPAPNSTSPVSFIATYRLGMAARGHSWPCLQQTPTSTSCTITDVQLFSMAPYVLNVTAVHPWGSSSSFVPFITEHIIKPDPPEGVRLSPLAERQLQVQWEPPGSWPFPEIFSLKYWIRYKRQGAARFHRVGPIEATSFILRAVRPRARYYVQVAAQDLTDYGELSDWSLPATATMSLGK
As for B1, in assay [1], the binding result is reported as “binds”.

B2: human EBI3 expressed in CHO cells (protein, UniProt Q14213 21-229)
chain: B1 chain
For the molecule B2, the binding result in assay [2] is recorded as “binds”.
